Experiment [1] addresses T1, MPP8-AGH (MPP8 endogenously tagged at the C terminus with AID-GFP-HAx3) (mouse (endogenous in R1 mESCs)) (UniProt Q3TYA6).
T1 sequence: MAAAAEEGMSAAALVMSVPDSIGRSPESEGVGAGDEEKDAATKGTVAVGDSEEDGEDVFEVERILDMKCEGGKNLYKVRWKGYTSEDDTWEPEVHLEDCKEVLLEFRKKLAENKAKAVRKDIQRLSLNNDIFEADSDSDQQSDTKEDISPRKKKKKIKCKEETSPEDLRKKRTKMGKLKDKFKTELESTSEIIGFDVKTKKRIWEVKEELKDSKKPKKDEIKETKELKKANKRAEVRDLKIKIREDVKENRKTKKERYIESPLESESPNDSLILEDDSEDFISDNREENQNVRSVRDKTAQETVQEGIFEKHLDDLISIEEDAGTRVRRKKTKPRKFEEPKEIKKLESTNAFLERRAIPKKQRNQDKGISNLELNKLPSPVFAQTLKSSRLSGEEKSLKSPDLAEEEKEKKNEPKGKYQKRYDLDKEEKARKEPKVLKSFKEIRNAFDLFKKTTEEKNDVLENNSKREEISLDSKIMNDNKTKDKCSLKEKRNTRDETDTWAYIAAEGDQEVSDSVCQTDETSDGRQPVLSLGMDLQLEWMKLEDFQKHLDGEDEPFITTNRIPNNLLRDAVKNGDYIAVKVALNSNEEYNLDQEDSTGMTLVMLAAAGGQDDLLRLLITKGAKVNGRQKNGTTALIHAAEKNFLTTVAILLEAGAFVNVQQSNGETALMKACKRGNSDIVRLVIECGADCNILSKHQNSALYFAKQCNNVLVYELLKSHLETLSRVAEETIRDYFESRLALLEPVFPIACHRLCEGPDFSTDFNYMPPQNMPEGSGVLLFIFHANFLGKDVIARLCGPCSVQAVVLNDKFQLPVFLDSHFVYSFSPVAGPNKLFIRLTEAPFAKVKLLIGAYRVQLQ
As to the kind of experiment: affinity purification with mass spectrometry; HA IP from TASOR-AGH or MPP8-AGH mESCs against untagged control mESCs; label-free quantification (LFQ).

Sequences of proteins named here, by UniProt entry; tags and fusion partners are left off.
UniProt Q69ZR9: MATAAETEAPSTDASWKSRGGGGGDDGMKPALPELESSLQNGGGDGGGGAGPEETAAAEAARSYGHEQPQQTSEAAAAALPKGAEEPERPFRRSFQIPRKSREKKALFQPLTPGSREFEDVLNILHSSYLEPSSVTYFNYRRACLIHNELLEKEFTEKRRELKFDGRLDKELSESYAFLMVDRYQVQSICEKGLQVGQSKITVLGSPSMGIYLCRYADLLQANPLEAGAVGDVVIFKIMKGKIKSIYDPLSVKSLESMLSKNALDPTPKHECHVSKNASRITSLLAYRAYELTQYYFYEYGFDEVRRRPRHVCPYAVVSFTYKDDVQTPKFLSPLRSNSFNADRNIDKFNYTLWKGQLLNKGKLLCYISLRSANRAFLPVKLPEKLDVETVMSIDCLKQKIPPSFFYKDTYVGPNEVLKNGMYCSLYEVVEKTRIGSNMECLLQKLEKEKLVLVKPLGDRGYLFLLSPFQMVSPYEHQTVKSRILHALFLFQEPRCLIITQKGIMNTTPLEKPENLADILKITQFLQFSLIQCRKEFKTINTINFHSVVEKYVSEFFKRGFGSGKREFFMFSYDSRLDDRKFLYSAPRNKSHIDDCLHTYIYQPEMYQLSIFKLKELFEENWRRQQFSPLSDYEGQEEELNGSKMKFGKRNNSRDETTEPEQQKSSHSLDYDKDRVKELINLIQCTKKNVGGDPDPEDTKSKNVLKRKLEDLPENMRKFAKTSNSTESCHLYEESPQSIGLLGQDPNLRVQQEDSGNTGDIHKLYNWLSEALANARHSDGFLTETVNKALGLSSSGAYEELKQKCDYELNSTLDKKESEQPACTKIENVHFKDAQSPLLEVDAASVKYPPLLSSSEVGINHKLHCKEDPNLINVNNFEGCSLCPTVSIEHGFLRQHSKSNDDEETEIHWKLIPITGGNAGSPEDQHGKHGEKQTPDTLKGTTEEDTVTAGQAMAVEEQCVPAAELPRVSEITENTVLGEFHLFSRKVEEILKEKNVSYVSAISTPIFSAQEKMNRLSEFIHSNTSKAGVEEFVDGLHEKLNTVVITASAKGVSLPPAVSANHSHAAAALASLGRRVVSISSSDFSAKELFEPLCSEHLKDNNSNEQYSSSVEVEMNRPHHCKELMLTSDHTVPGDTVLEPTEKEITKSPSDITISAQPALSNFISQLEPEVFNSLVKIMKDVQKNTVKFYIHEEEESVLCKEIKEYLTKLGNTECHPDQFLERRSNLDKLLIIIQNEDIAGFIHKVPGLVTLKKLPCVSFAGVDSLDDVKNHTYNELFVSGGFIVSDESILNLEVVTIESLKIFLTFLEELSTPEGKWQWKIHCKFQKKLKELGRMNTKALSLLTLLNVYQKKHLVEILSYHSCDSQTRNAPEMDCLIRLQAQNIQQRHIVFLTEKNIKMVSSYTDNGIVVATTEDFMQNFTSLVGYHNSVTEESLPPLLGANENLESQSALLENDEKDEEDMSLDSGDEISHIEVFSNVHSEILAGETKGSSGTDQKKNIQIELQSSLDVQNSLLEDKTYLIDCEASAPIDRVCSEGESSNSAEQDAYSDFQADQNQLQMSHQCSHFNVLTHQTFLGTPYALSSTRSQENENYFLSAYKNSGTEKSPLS
UniProt Q8BFQ4: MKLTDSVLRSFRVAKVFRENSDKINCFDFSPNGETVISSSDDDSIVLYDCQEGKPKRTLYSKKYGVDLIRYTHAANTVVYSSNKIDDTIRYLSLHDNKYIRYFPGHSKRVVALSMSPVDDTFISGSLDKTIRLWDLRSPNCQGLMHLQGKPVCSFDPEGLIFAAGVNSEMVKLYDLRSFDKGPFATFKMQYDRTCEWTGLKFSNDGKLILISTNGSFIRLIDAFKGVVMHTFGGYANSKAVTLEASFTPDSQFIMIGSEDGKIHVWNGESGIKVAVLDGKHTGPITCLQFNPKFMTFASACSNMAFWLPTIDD

In experiment [2] the target is TASOR-AGH (TASOR endogenously tagged at the C terminus with AID-GFP-HAx3) (mouse (endogenous in R1 mESCs)) (UniProt Q69ZR9). Described as above.

No constants are given. Whether binding was seen depends on the method and setting. In cells and extracts the contact can be indirect. These calls come from enrichment with a bait or labelling near it, and not all partners need be listed. For some of these results: Tags and fused reporters may be left off the sequences shown.

With WDR82 (from UniProt Q8BFQ4 1-313), the binding entry in experiment [1] and in experiment [2] was “binds” in each case.

B1: FIP1L1 (protein, UniProt Q9D824 1-581)
chain: MSAGEVERLVELSGGTGGDEEEEWLYGGPWDVHVHSDLAKDLDENEVERPEEENASANPPSGIEEEAAENGVAKPKVTETEDDSDSDSDDDEDDVHVTIGDIKTGAPQYGSYGTAPVNLNIKAGGRVYGNTGTKVKGVDLDAPGSINGVPLLEVDLDSFEDKPWRKPGADLSDYFNYGFNEDTWKAYCEKQKRIRMGLEVIPVTSTTNKITVQQGRTGNSEKEAALPSTKAEFTSPPSLFKTGLPPSRNSTSSQSQTSTASRKASSSVGKWQDRYGRAESPDLRRLPGAIDVIGQTITISRVEGRRRANENSNIQVLSDRSATEVDNNFSKPPPFFPPGAPPTHLPPPPFLPPPPTVSTAPPLIPPPGIPITVPPPGFPPPPGAPPPSLIPTIESGHSSGYDSRSARAFPYGNVAFPHLTSSAPSWPSLVDTTKQWDYYARREKDRDRDRERDRDRERERDRDRERERTRERERERDHSPTPSVFNSDEERYRYREYAERGYERHRASREKEERHRERRHREKEETRHKSSRSNSRRRHESEEGDSHRRHKHKKSKRSKEGKEAGSEPVPEQESTEAAPAE
Take B1: the binding entry in experiment [1] and in experiment [2] was “binds” in each case.

B2: PPHLN1 (periphilin) (protein, UniProt Q8K2H1 1-381)
chain: MWSEGRYDYDRLPRERVPPRSHPSDGYHRVVNVVPKRPPLLDKRPPLLDKRPPLLARPDEGGYSRYYSHVDCRVCDEGRSFSHDRRSGPSHSGDESGYRWLRDDHSTSRQPDYRDMRDGFRRKSFYSSHYSRDRSPHKRDAPFFRESPVGRKDSPHSRSGSSVSSRSYSPERSRTHSFHQSQHRKSSRVGASYKRQNEAIRGRGKERSIQSVKTSRDASPSSSSAVASSKALDKPSRLTEKELAEAESKWANETLEKSDESNLAEMNEFEAGSTAPLFIDQTEEPESNTVDGTELYEDSQLSNRSKAIASKTKEIEQVYRQDCETFGMVVKMLIEKDPSLEKSVQFALRQNLHEIGERCVEELKRFITEYDNSARDFGDPF
B2: the binding entry in experiment [1] and in experiment [2] was “binds” each time.

B3: ATF7IP (protein, UniProt Q7TT18 1-1306)
chain: MDSVEEPQKKVFKARKTMRASDRQQLDAVHRVKGELLRADGKLLNGSHENGDLDPTSPLENTDCIQDREEVNGIDGICFQSEESTTEWKETPCMPNVAVKNKQEDLNSEALSPSITCDLSSRVTTEPGSGSPASDNPGCGTPVSDNPASDNPASDNPASDNPDSGDLAAGELATTVQATGDSACEEPPSSDPSSSDPTSSEPSSSEPTCSEPISGDPVSEEAASHDLVSGDSTCSEPVSGEPVSHEAASSEPATSEPASDEPVARVVAACELAPGESALDDCAPSGDSQSDEPPSSEDSLPRSVCSGLASGELTPGELSVEPATDTVKPSSSAVCEAGPDPDKTEPSSNNSDDCPGKSEDDEHLDQIQSKDSCDEGNKVNSNVVEKEEPLETHSAIICSDLPPENTTKIAEDPIAEPALEEEAISSSMEVDQSEKDEHKSPAEPVAAVSEDPAEEDKEDTVVDNTDSMETDEIIPILEKLAPTEDELSCFSKASLLPVETSQDLEDKMEGSFGSPSKQESSENLPKEAFLVLSDEEDLSCGKDESEAVAQSKMSTPEGEKSEKDGKAEEEERVPAEEQPPVRNEFSRRKRSKSEDMDSVESKRRRYMDEEYEAEFQVKITAKGDINQKLQKVIQWLLQEKLCALQCAVFDKTLAELKTRVEKIECNKRHKAVLTELQAKIARLTKRFGAAKDDLKKRQESPPNPPISPGKPANDTNSNNNMTYRNAGTVRQLLESKRNVSEGPPPSFQTPVNTVSSASHATSTAVVSSQPKLQTSATSGSLPAAPLLPAPSTATVVATTQVPSGTPQPTISLQPLPVILHVPVAVTSQPQLLQSHPGTLVTNQPSGNVEFISVQSQPTVSGLTKNPVSLPPLPNPTKPNIPSVPSPSSIQRNSSTTAAPLGTTLAVQAVPTAHSIVQATRTSLPTVGPSGLYSSSSSRGPIQMKIPISTFSPPSSAEQNSSATPRIVTENQTNKTVDSSINKKAADSTSQSGKASSSDSSGVIDLTMDDEESGTTQDPKKISPPSSSTVSTSQPMSRPLQPILPAPPLQPSGVPTSGPSQATIHVLPTAPTTVNVTHRPVTQVTTRLPVPRAPANHQVVYTTLPAPTTQAPLRGTVMQAPAVRQVNPQNSVTVRVPQTTTYVVNNGLTLGSAGPQLTVHHRPPQVHNEPPRPLHPAPLPEAPQPQRLPPEAASTSLPQKPHLKLARVQSQNGIVLSWSVLEVDRSCATVDSYHLYAYHEEPSATVPSQWKKIGEVKALPLPMACTLTQFVSGSKYYFAVRAKDIYGRFGPFCDPQSTDVISSSQNS
Regarding B3, in experiment [1], the binding result was “binds”.

The values above are taken from article PMC10915761.
